This is an account of results in the supplement of paper PMC6658780.

Counter-ions that a name gives are not always drawn. ± gives the standard deviation of the averaged measurements. This is one part of the list. Single values are uncertain here, since repeats match poorly.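 Clinical A. baumannii isolates resistant to the partner antibiotic were chosen, and the screen identifies drugs restoring that antibiotic's activity. Subtracting the initial incubation reading corrects for coloured-compound background.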

The test system of the first test is Acinetobacter baumannii WP-487. In words: percent growth inhibition of drug + antibiotic vs DMSO control; higher = more growth inhibition. Particulars: antibiotic (0.125x MIC): colistin; 7 µM. Here is the method:
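Prestwick drugs tested at 20 uM and 7 uM with an antibiotic at 0.125x MIC (16 mg/L when MIC >128 mg/L) in cation-adjusted Mueller-Hinton broth, 384-well plates, duplicate runs on different days. Percent growth inhibition was computed from OD600 (24 h minus 0 h) relative to DMSO-only wells. Drug + 0.1% DMSO (no antibiotic) wells are also given. Only hits (max corrected inhibition > mean + 3SD) are listed. A. baumannii: NCTC-13301 was used for MEM/CIP/GEN/TGC and WP-487 for colistin. Duplicates with colistin are strongly discordant (run 2 near 100% for most drugs).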
With `CCCCCCCCNC(C)C(O)c1ccc(SC(C)C)cc1` (stereo not given) [Suloctidil], the percent growth inhibition is 28.5 ± 40%.
On to `Cc1c(O)cccc1C(=O)N[C@@H](CSc1ccccc1)[C@H](O)CN1C[C@H]2CCCC[C@H]2C[C@H]1C(=O)NC(C)(C)C` [Nelfinavir mesylate], for which the percent growth inhibition turned out to be 2.52 ± 0.19%.
Consider `CC[C@H]1OC(=O)C[C@@H](O)[C@H](C)[C@@H](O[C@@H]2O[C@H](C)[C@@H](O[C@H]3C[C@@](C)(O)[C@@H](O)[C@H](C)O3)[C@H](N(C)C)[C@H]2O)[C@@H](CC=O)C[C@@H](C)C(=O)/C=C/C(C)=C/[C@@H]1CO[C@@H]1O[C@H](C)[C@@H](O)[C@@H](OC)[C@H]1OC` [Tylosin], for which the percent growth inhibition was 43.9 ± 65%.
The same measure, in the same setting: under `CC(=O)O[C@H]1C[C@@]2(C)[C@@H](C[C@@H](O)[C@H]3[C@@]4(C)CC[C@@H](O)[C@@H](C)[C@@H]4CC[C@@]32C)/C1=C(\CCC=C(C)C)C(=O)O` [Fusidic acid sodium salt] stands 52.6 ± 54%.
On the same count and under the same terms, the result for `Oc1c(I)cc(Cl)c2cccnc12` [Clioquinol] reads 71.8 ± 40%.
On the same count and under the same terms, the result for `CCCCOC(=O)c1ccc(N)cc1` [Butamben] reads 38.2 ± 52%.
As to `Clc1ccc(COC(Cn2ccnc2)c2ccc(Cl)cc2Cl)c(Cl)c1` (stereo not given) [Miconazole], the percent growth inhibition was determined as 51.1 ± 56%.
Still for that read-out and setting: the result for `COCCOC(=O)C1=C(C)NC(C)=C(C(=O)OC/C=C/c2ccccc2)C1c1cccc([N+](=O)[O-])c1` (stereo not given) [Cilnidipine] reads 54.1 ± 53%; that for `CC(=O)[C@@]12O[C@](C)(c3ccccc3)O[C@@H]1C[C@H]1[C@@H]3CCC4=CC(=O)CC[C@]4(C)[C@H]3CC[C@@]12C` [Algestone acetophenide], -2.57 ± 18%.
Still for that read-out and setting: the result for `CCCCc1oc2ccccc2c1C(=O)c1cc(I)c(OCCN(CC)CC)c(I)c1` [Amiodarone hydrochloride] reads 49.5 ± 58%; that for `COC(=O)C1=C(C)NC(C)=C(C(=O)OC2CCCN(Cc3ccccc3)C2)C1c1cccc([N+](=O)[O-])c1` (stereo not given) [Benidipine hydrochloride], 57.2 ± 61%.
Turning to `OCCN1CCN(CCCN2c3ccccc3Sc3ccc(C(F)(F)F)cc32)CC1` [Fluphenazine dihydrochloride], the percent growth inhibition stood at 48 ± 59%.
`Nc1ccc(S(=O)(=O)c2ccc(N)cc2)cc1` [Dapsone]: the percent growth inhibition was 2.14 ± 9%.
The same measure, in the same setting: under `O=C1Nc2ccc(Cl)cc2[C@@](C#CC2CC2)(C(F)(F)F)O1` [Efavirenz] stands 42.5 ± 66%.
Still for that read-out and setting: the result for `COc1cnc(NS(=O)(=O)c2ccc(N)cc2)nc1` [Sulfameter] reads 9.55 ± 30%; that for `C#C[C@]1(O)CC[C@H]2[C@@H]3CCC4=CCCC[C@@H]4[C@H]3CC[C@@]21C` [Lynestrenol], 47.4 ± 74%.
The same measure, in the same setting: the result for `O=C1CN(/N=C/c2ccc([N+](=O)[O-])o2)C(=O)N1` [Nitrofurantoin] reads 0.285 ± 0.36%; that for `CCOC1O[C@H]([C@@H](COCc2ccccc2)OCc2ccccc2)[C@H](OCc2ccccc2)[C@H]1O` (stereo not given in full) [Tribenoside], -1.7 ± 6%; that for `CN[C@H]1CC[C@@H](c2ccc(Cl)c(Cl)c2)c2ccccc21` [Sertraline], 0.894 ± 4.3%.
As to `COc1ccc(-c2cc(=S)ss2)cc1` [Anethole-trithione], the percent growth inhibition came to 5.79 ± 5.3%.

The same test, now with this note: antibiotic (0.125x MIC): colistin; 20 µM.
As to `CCCCCCCCNC(C)C(O)c1ccc(SC(C)C)cc1` (stereo not given) [Suloctidil], the percent growth inhibition worked out at 97.6 ± 3.3%.
On the same count and under the same terms, under `Cc1c(O)cccc1C(=O)N[C@@H](CSc1ccccc1)[C@H](O)CN1C[C@H]2CCCC[C@H]2C[C@H]1C(=O)NC(C)(C)C` [Nelfinavir mesylate] stands 41.2 ± 64%; under `CC[C@H]1OC(=O)C[C@@H](O)[C@H](C)[C@@H](O[C@@H]2O[C@H](C)[C@@H](O[C@H]3C[C@@](C)(O)[C@@H](O)[C@H](C)O3)[C@H](N(C)C)[C@H]2O)[C@@H](CC=O)C[C@@H](C)C(=O)/C=C/C(C)=C/[C@@H]1CO[C@@H]1O[C@H](C)[C@@H](O)[C@@H](OC)[C@H]1OC` [Tylosin], 56 ± 51%; under `CC(=O)O[C@H]1C[C@@]2(C)[C@@H](C[C@@H](O)[C@H]3[C@@]4(C)CC[C@@H](O)[C@@H](C)[C@@H]4CC[C@@]32C)/C1=C(\CCC=C(C)C)C(=O)O` [Fusidic acid sodium salt], 54.5 ± 53%.
On the same count and under the same terms, under `Oc1c(I)cc(Cl)c2cccnc12` [Clioquinol] stands 99.64 ± 0.68%; under `CCCCOC(=O)c1ccc(N)cc1` [Butamben], 8.12 ± 9.7%.
The same measure, in the same setting: under `Clc1ccc(COC(Cn2ccnc2)c2ccc(Cl)cc2Cl)c(Cl)c1` (stereo not given) [Miconazole] stands 53 ± 54%; under `COCCOC(=O)C1=C(C)NC(C)=C(C(=O)OC/C=C/c2ccccc2)C1c1cccc([N+](=O)[O-])c1` (stereo not given) [Cilnidipine], 54.6 ± 53%.
Regarding `CC(=O)[C@@]12O[C@](C)(c3ccccc3)O[C@@H]1C[C@H]1[C@@H]3CCC4=CC(=O)CC[C@]4(C)[C@H]3CC[C@@]12C` [Algestone acetophenide], the percent growth inhibition was determined as 43 ± 80%.
Still for that read-out and setting: under `CCCCc1oc2ccccc2c1C(=O)c1cc(I)c(OCCN(CC)CC)c(I)c1` [Amiodarone hydrochloride] stands 48 ± 60%; under `COC(=O)C1=C(C)NC(C)=C(C(=O)OC2CCCN(Cc3ccccc3)C2)C1c1cccc([N+](=O)[O-])c1` (stereo not given) [Benidipine hydrochloride], 21.7 ± 5.3%.
On the same count and under the same terms, the result for `OCCN1CCN(CCCN2c3ccccc3Sc3ccc(C(F)(F)F)cc32)CC1` [Fluphenazine dihydrochloride] reads 45.6 ± 63%; that for `Nc1ccc(S(=O)(=O)c2ccc(N)cc2)cc1` [Dapsone], 44.7 ± 73%; that for `O=C1Nc2ccc(Cl)cc2[C@@](C#CC2CC2)(C(F)(F)F)O1` [Efavirenz], 49 ± 59%.
Turning to `COc1cnc(NS(=O)(=O)c2ccc(N)cc2)nc1` [Sulfameter], the percent growth inhibition stood at 51.1 ± 64%.
Turning to `C#C[C@]1(O)CC[C@H]2[C@@H]3CCC4=CCCC[C@@H]4[C@H]3CC[C@@]21C` [Lynestrenol], the percent growth inhibition amounted to 7.36 ± 9.5%.
Consider `O=C1CN(/N=C/c2ccc([N+](=O)[O-])o2)C(=O)N1` [Nitrofurantoin], for which the percent growth inhibition came out at 55.6 ± 50%.
On the same count and under the same terms, under `CCOC1O[C@H]([C@@H](COCc2ccccc2)OCc2ccccc2)[C@H](OCc2ccccc2)[C@H]1O` (stereo not given in full) [Tribenoside] stands 44.4 ± 79%; under `CN[C@H]1CC[C@@H](c2ccc(Cl)c(Cl)c2)c2ccccc21` [Sertraline], 49.7 ± 70%.
The same measure, in the same setting: under `COc1ccc(-c2cc(=S)ss2)cc1` [Anethole-trithione] stands 53.1 ± 65%.
